The values that follow come from article doi:10.1101/2022.07.15.500188.

Amino acid sequences for entries named in this document (tags omitted).
UniProt Q8IZL8: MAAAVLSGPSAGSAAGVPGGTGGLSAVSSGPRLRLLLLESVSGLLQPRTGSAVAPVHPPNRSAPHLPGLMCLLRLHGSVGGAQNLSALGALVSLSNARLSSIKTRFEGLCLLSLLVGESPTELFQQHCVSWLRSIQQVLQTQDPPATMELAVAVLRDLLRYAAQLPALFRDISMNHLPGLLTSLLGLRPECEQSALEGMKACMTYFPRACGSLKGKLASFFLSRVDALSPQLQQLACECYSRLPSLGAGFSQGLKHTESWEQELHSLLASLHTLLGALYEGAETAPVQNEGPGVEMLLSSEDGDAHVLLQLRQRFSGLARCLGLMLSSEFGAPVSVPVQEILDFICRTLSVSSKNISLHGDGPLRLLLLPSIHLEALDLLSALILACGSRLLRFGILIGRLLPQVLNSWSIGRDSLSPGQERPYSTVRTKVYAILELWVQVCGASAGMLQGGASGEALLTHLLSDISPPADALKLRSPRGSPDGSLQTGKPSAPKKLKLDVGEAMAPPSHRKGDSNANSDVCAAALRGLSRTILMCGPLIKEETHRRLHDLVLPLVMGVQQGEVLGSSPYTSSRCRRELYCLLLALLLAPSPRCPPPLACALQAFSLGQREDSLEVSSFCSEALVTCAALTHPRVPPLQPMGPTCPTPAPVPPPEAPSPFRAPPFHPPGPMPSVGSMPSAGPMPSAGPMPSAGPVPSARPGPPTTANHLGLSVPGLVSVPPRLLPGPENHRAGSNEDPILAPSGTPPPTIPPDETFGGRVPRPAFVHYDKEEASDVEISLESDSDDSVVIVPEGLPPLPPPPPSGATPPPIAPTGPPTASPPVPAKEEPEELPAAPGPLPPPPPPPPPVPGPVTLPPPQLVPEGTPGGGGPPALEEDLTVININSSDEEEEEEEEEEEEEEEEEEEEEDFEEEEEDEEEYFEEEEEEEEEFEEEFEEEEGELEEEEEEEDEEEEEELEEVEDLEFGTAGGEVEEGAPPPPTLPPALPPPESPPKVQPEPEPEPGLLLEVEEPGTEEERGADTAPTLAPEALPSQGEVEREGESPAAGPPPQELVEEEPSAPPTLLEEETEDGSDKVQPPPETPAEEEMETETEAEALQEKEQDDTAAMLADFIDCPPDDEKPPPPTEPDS
UniProt Q9H4L4: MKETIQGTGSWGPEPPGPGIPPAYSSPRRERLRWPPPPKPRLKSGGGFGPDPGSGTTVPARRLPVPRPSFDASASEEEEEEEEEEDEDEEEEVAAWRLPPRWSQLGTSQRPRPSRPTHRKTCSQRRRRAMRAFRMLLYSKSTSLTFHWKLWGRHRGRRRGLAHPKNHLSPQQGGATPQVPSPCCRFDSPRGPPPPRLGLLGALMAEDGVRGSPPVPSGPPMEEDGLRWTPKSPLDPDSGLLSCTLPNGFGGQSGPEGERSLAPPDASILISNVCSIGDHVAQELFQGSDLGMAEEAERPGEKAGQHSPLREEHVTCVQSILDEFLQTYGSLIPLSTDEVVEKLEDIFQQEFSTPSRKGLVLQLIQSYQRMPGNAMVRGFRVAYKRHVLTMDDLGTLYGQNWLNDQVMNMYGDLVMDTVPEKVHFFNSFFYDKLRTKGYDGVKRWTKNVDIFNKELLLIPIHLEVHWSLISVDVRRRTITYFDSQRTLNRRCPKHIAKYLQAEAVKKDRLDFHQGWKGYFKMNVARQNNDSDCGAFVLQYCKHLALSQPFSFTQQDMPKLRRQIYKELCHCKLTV

Like-named read-outs stand apart in the source and are kept apart here. No constants are given. Whether binding was seen depends on the method and setting. Binding seen in cells or lysates may run through a third protein. Here binding means that the protein was enriched with, or labelled near, the bait; the list need not be complete. Tags and fused reporters may be left off the sequences shown.

The target of test [1] is T1, HMGN5-GFP (human HMGN5 with C-terminal GFP, HMGN5-FlpIn cell line) (human) (UniProt P82970).
T1 sequence: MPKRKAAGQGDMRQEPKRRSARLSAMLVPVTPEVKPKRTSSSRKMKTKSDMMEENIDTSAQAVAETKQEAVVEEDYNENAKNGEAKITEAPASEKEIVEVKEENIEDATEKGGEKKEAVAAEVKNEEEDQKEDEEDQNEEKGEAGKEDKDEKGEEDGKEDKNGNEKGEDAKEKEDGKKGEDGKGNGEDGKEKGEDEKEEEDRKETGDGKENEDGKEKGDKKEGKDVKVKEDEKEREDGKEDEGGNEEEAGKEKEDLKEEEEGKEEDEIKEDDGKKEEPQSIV
Put plainly: affinity purification with mass spectrometry.

Test [2] concerns the target T1, HMGN5-GFP (human HMGN5 with C-terminal GFP, HMGN5-FlpIn cell line) (human). Kind of test: affinity purification with mass spectrometry. The source holds these as a separate data set.

Consider PELP1 (from UniProt Q8IZL8 1-1130), for which the binding result in test [1] is recorded as “binds”.

With SENP3 (from UniProt Q9H4L4 1-574), the binding result in test [1] was “binds”.

B1: CTCF (protein, UniProt P49711 1-727)
chain: MEGDAVEAIVEESETFIKGKERKTYQRRREGGQEEDACHLPQNQTDGGEVVQDVNSSVQMVMMEQLDPTLLQMKTEVMEGTVAPEAEAAVDDTQIITLQVVNMEEQPINIGELQLVQVPVPVTVPVATTSVEELQGAYENEVSKEGLAESEPMICHTLPLPEGFQVVKVGANGEVETLEQGELPPQEDPSWQKDPDYQPPAKKTKKTKKSKLRYTEEGKDVDVSVYDFEEEQQEGLLSEVNAEKVVGNMKPPKPTKIKKKGVKKTFQCELCSYTCPRRSNLDRHMKSHTDERPHKCHLCGRAFRTVTLLRNHLNTHTGTRPHKCPDCDMAFVTSGELVRHRRYKHTHEKPFKCSMCDYASVEVSKLKRHIRSHTGERPFQCSLCSYASRDTYKLKRHMRTHSGEKPYECYICHARFTQSGTMKMHILQKHTENVAKFHCPHCDTVIARKSDLGVHLRKQHSYIEQGKKCRYCDAVFHERYALIQHQKSHKNEKRFKCDQCDYACRQERHMIMHKRTHTGEKPYACSHCDKTFRQKQLLDMHFKRYHDPNFVPAAFVCSKCGKTFTRRNTMARHADNCAGPDGVEGENGGETKKSKRGRKRKMRSKKEDSSDSENAEPDLDDNEDEEEPAVEIEPEPEPQPVTPAPPPAKKRRGRPPGRTNQPKQNQPTAIIQVEDQNTGAIENIIVEVKKEPDAEPAEGEEEEAQPAATDAPNGDLTPEMILSMMDR
With B1, the binding result in test [2] is recorded as “binds”.

B2: TEX10 (protein, UniProt Q9NXF1 1-929)
chain: MTKKRKRQHDFQKVKLKVGKKKPKLQNATPTNFKTKTIHLPEQLKEDGTLPTNNRKLNIKDLLSQMHHYNAGVKQSALLGLKDLLSQYPFIIDAHLSNILSEVTAVFTDKDANVRLAAVQLLQFLAPKIRAEQISPFFPLVSAHLSSAMTHITEGIQEDSLKVLDILLEQYPALITGRSSILLKNFVELISHQQLSKGLINRDRSQSWILSVNPNRRLTSQQWRLKVLVRLSKFLQALADGSSRLRESEGLQEQKENPHATSNSIFINWKEHANDQQHIQVYENGGSQPNVSSQFRLRYLVGGLSGVDEGLSSTENLKGFIEIIIPLLIECWVEAVPPQLATPVGNGIEREPLQVMQQVLNIISLLWKLSKQQDETHKLESWLRKNYLIDFKHHFMSRFPYVLKEITKHKRKEPNKSIKHCTVLSNNIDHLLLNLTLSDIMVSLANASTLQKDCSWIEMIRKFVTETLEDGSRLNSKQLNRLLGVSWRLMQIQPNREDTETLIKAVYTLYQQRGLILPVRTLLLKFFSKIYQTEELRSCRFRYRSKVLSRWLAGLPLQLAHLGSRNPELSTQLIDIIHTAAARANKELLKSLQATALRIYDPQEGAVVVLPADSQQRLVQLVYFLPSLPADLLSRLSRCCIMGRLSSSLAAMLIGILHMRSSFSGWKYSAKDWLMSDVDYFSFLFSTLTGFSKEELTWLQSLRGVPHVIQTQLSPVLLYLTDLDQFLHHWDVTEAVFHSLLVIPARSQNFDILQSAISKHLVGLTVIPDSTAGCVFGVICKLLDHTCVVSETLLPFLASCCYSLLYFLLTIEKGEAEHLRKRDKLWGVCVSILALLPRVLRLMLQSLRVNRVGPEELPVVGQLLRLLLQHAPLRTHMLTNAILVQQIIKNITTLKSGSVQEQWLTDLHYCFNVYITGHPQGPSALATVY
With B2, the binding entry in test [2] is recorded as “binds”.

B3: WDR18 (protein, UniProt Q9BV38 1-432)
chain: MAAPMEVAVCTDSAAPMWSCIVWELHSGANLLTYRGGQAGPRGLALLNGEYLLAAQLGKNYISAWELQRKDQLQQKIMCPGPVTCLTASPNGLYVLAGVAESIHLWEVSTGNLLVILSRHYQDVSCLQFTGDSSHFISGGKDCLVLVWSLCSVLQADPSRIPAPRHVWSHHALPITDLHCGFGGPLARVATSSLDQTVKLWEVSSGELLLSVLFDVSIMAVTMDLAEHHMFCGGSEGSIFQVDLFTWPGQRERSFHPEQDAGKVFKGHRNQVTCLSVSTDGSVLLSGSHDETVRLWDVQSKQCIRTVALKGPVTNAAILLAPVSMLSSDFRPSLPLPHFNKHLLGAEHGDEPRHGGLTLRLGLHQQGSEPSYLDRTEQLQAVLCSTMEKSVLGGQDQLRVRVTELEDEVRNLRKINRDLFDFSTRFITRPAK
With B3, the binding result in test [2] is listed as “binds”.

B4: LAS1 (protein, UniProt Q9Y4W2 1-734)
chain: MSWESGAGPGLGSQGMDLVWSAWYGKCVKGKGSLPLSAHGIVVAWLSRAEWDQVTVYLFCDDHKLQRYALNRITVWRSRSGNELPLAVASTADLIRCKLLDVTGGLGTDELRLLYGMALVRFVNLISERKTKFAKVPLKCLAQEVNIPDWIVDLRHELTHKKMPHINDCRRGCYFVLDWLQKTYWCRQLENSLRETWELEEFREGIEEEDQEEDKNIVVDDITEQKPEPQDDGKSTESDVKADGDSKGSEEVDSHCKKALSHKELYERARELLVSYEEEQFTVLEKFRYLPKAIKAWNNPSPRVECVLAELKGVTCENREAVLDAFLDDGFLVPTFEQLAALQIEYEDGQTEVQRGEGTDPKSHKNVDLNDVLVPKPFSQFWQPLLRGLHSQNFTQALLERMLSELPALGISGIRPTYILRWTVELIVANTKTGRNARRFSAGQWEARRGWRLFNCSASLDWPRMVESCLGSPCWASPQLLRIIFKAMGQGLPDEEQEKLLRICSIYTQSGENSLVQEGSEASPIGKSPYTLDSLYWSVKPASSSFGSEAKAQQQEEQGSVNDVKEEEKEEKEVLPDQVEEEEENDDQEEEEEDEDDEDDEEEDRMEVGPFSTGQESPTAENARLLAQKRGALQGSAWQVSSEDVRWDTFPLGRMPGQTEDPAELMLENYDTMYLLDQPVLEQRLEPSTCKTDTLGLSCGVGSGNCSNSSSSNFEGLLWSQGQLHGLKTGLQLF
As to B4, the binding result in test [2] was “binds”.

B5: NOL9 (protein, UniProt Q5SY16 1-702)
chain: MADSGLLLKRGSCRSTWLRVRKARPQLILSRRPRRRLGSLRWCGRRRLRWRLLQAQASGVDWREGARQVSRAAAARRPNTATPSPIPSPTPASEPESEPELESASSCHRPLLIPPVRPVGPGRALLLLPVEQGFTFSGICRVTCLYGQVQVFGFTISQGQPAQDIFSVYTHSCLSIHALHYSQPEKSKKELKREARNLLKSHLNLDDRRWSMQNFSPQCSIVLLEHLKTATVNFITSYPGSSYIFVQESPTPQIKPEYLALRSVGIRREKKRKGLQLTESTLSALEELVNVSCEEVDGCPVILVCGSQDVGKSTFNRYLINHLLNSLPCVDYLECDLGQTEFTPPGCISLLNITEPVLGPPFTHLRTPQKMVYYGKPSCKNNYENYIDIVKYVFSAYKRESPLIVNTMGWVSDQGLLLLIDLIRLLSPSHVVQFRSDHSKYMPDLTPQYVDDMDGLYTKSKTKMRNRRFRLAAFADALEFADEEKESPVEFTGHKLIGVYTDFAFRITPRNRESHNKILRDLSILSYLSQLQPPMPKPLSPLHSLTPYQVPFNAVALRITHSDVAPTHILYAVNASWVGLCKIQDDVRGYTNGPILLAQTPICDCLGFGICRGIDMEKRLYHILTPVPPEELRTVNCLLVGAIAIPHCVLKCQRGIEGTVPYVTTDYNFKLPGASEKIGAREPEEAHKEKPYRRPKFCRKMK
Take B5: in test [2], the binding entry is recorded as “binds”.
